Reference: patent US20240317862A1
Changes are numbered by the printed parent chain. No constants are given. Whether binding was seen depends on the method and setting. Some results given as binding are weak or reduced against the parent protein; the word gives no strength. For some assays here: Where a sequence is shown, tags or fusion partners need not be part of it.

Tests used:
[1] = target: T1, human B7-H3 on tumor cells (Hs578T, MDA-MB-436, MDA-MB-468, MDA-MB-231, MDA-MB-453, HT-29) (human) (UniProt Q5ZPR3); test: flow cytometry on MDA-MB-231, MDA-MB-453 and HT-29 tumor cells
T1 sequence (looked up): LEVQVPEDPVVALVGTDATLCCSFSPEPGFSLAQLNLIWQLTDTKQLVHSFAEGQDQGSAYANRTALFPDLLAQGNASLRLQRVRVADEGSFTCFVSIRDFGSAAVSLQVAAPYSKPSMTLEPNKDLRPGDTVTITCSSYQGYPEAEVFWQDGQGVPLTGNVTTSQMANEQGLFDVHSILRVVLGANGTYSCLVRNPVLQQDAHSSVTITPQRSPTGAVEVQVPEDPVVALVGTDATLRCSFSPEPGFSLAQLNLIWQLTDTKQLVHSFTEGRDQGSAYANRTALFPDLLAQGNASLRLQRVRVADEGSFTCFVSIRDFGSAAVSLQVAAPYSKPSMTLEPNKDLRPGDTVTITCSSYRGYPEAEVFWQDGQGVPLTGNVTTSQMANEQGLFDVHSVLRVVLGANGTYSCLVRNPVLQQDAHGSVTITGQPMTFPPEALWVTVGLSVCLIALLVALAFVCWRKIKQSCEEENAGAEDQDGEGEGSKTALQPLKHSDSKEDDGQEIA

[2] = target: T1, human B7-H3 on tumor cells (Hs578T, MDA-MB-436, MDA-MB-468, MDA-MB-231, MDA-MB-453, HT-29) (human); test: flow cytometry on Hs578T, MDA-MB-436 and MDA-MB-468 tumor cells
[3] = target: T2, human B7-H3 (purchased from Acro Biosystems) (human) (UniProt Q5ZPR3); test: ELISA, plate coated with human B7-H3
T2 sequence (looked up): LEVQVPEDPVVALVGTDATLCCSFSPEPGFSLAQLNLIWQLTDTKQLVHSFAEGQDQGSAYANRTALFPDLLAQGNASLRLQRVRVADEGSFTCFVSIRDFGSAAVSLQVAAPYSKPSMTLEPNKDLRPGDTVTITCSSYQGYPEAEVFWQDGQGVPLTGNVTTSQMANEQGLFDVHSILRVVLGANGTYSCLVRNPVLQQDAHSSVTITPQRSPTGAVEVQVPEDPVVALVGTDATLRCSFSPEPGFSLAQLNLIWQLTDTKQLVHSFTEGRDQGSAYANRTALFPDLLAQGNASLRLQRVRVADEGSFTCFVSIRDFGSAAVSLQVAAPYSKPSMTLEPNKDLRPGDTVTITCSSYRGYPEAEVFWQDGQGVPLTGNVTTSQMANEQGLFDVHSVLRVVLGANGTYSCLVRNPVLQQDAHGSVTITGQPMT

[4] = target: T3, His-labeled human B7-H3 (human) (UniProt Q5ZPR3); test: BLI (ForteBio Octet), His-labeled human B7-H3 on Ni-NTA sensor
T3 sequence (looked up): T2 sequence (looked up)

Measured: binding

B1: murine monoclonal antibody mAb152 (antibody, V domains shown)
VH: QVQLQQPGAELVRPGASVKLSCKASGYTFTAYWMNWVKQRPDQGLEWIGRIDPYDSETRYNQNFRDKARLTVDKSSSTAYMQLSSLTSEDSAVFYCARGVRIFDYWGQGTTLTVSS
VL: DIQMTQSPASLAASVGETVTITCRTSENIDYTLAWYQQKPGKSPQLLIYNANTLEDGVPSRFSGSGSGTHFSLKINSMQPEDTATYFCKQAYDVPRTFGGGTKLEIK
binds: all assays above

B2: murine monoclonal antibody mAb272 (antibody, V domains shown)
VH: B1 VH
VL: B1 VL with H70L, S77N
binds: all assays above
